Measured values published in publication doi:10.1101/2023.10.25.563799.

B1: apicomplexan-specific kinetochore protein 7 (protein, UniProt A0A509AF39 1-832)
chain: MDNKDEITSIGNKNKDEEIFKLRKLVSIFKNECKKLKEENDNLKKNERSESLEKKNESNVENSDGNVSEYGTDIQEKNEIIKRSIIEKSYKKLKDFTILLEDRLKNVKLESEKKCVELENKIEECNKNKKIYITEIGNLKEKLREQNSVIDGLNKKIEEYKIYLRSEKNVQACYENNIDQTIEYKIEIRKLKENIETLKKNNEITSKERQQYRSMIILCSQYKEKCKQIPNFQNKIDLLENQIKEMEIYKYKDNENIKKLTELKNTIINNQIENNNLKTQLNEWVNFAKIYINSKSINIDTLKKTMNELNNKYNEANSTKTDLEFKYRKIVVDIEVQKQLLEDKNFELKILKNKNMRLEKKYEFLKKDYLLEFTKNSTHISTTSILQNKNDEKGNEDNYKIEDIESVLPTNISSVLNEKYNEHDSEEIKKNKIENLLKLAQNYKYKIDFFQNDNLEKEKLIEELNNKIDKYKTDFENTQLKEKNIQVFTQDLLLYEKEINFLKEHAEIYKKQILNLENELANINNLWKEDNEKNEISIKNLKEALKKAQFEAKILANSSSSISGKNIIETKDTKNDSTFLYKDIDNMNSIDEIQIKNLKNENLYLKAKIEVIKIYYANQIKSFREAFLYILGWDIQIEQNDEEIFFIFTSMFSTHDGKFIFIKDKMQNDKRSYNKEKDEYEKFKRIKLEHDPTSDTSKIDPTSEKTKDEISYSTEQTSQCAVEKNLDTDEQFFAGLFGNKNQINAERIIDKINLKNTNINMSTIMKGCKYNLLLQGYYSIKWNENAEWKKYINKMTTYPILLSLLCIEEYNSIKSQYHNSLCKNSRSILFKI

Molecular target: PbARPC1-GFP (P. berghei)
Experiment: affinity purification with mass spectrometry

Molecule | binding
Alp5a (from UniProt A0A509AIH3) | binds
Alp5b (from UniProt A0A509AML7) | binds
PBANKA_1229300 (from UniProt A0A509AQK9) | binds
PbARPC2 (PBANKA_1014200) (from UniProt A0A509AMR4) | binds
B1 | binds

These are yes or no findings as the source states them, for the method shown. In cells and extracts the contact can be indirect. These calls come from enrichment with a bait or labelling near it, and not all partners need be listed.
